# Measurements reported in PubChem BioAssay AID504444 (National Center for Advancing Translational Sciences (NCATS), 2011).
# Hit rate of the full screen: of about 360,000 compounds, about 7,500 (2.1%) were called active. The shares of active, inactive and inconclusive entries below differ from those in the screen. The call rests on the fitted dose curve; in most records, active means well fitted inhibition curve with a large enough effect; inconclusive means small, poorly fitted or top-dose-only effect, or effect the other way; inactive means flat fitted curve, though single readings scatter. Potencies of inconclusive entries are doubtful fits and often do not repeat.
# Assay: Nrf2 qHTS screen for inhibitors; further: nearly all actives have a fitted effect of over 60% in size
# Conditions: A549 ARE-Fluc reporter, luciferase luminescence, 18-24 h; activity change, negative = inhibition: at 46 µM (top of the series)
# Outline: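 Cells were seeded and rested 2 h, then exposed to compounds for 18-24 h. CellTiter-Fluor was read first as a viability measure. BugLite was added 15 min before the final luminescent read of ARE-luciferase activity in A549 cells.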
# On the % scale 0 is the no-effect control and ±100 the full control effect; potency means the concentration at half of the fitted maximal effect.
SMILES,Potency,"activity change, negative = inhibition"
CCC(C(=O)NCCc1c[nH]c2ccc(C)cc12)c1ccccc1 (stereo unspecified),"inconclusive: 20.6 µM [falling, partial curve, poor fit]",–
Cc1cc(Cl)ccc1OCC(=O)Nc1ccc2oc(=O)ccc2c1,"inconclusive: 16.4 µM [falling, single point]",–
Cc1cc(C)nc(SCC(=O)Nc2ncc(Cc3cccc(Cl)c3Cl)s2)n1,"inconclusive: 13 µM [falling, partial curve, poor fit]",–
c1ccc(CNc2ncnc3scc(-c4cccs4)c23)nc1,"inconclusive: 6.51 µM [falling, partial curve, poor fit]",–
CCOc1ccc(-c2cc(CCCC(=O)NCc3ccco3)no2)cc1,"inconclusive: 2.06 µM [falling, full curve]",–
O=C(CSc1nnc(-c2ccc(O)cc2)n1Cc1ccco1)N1CCc2ccccc2C1,"inconclusive: 25.9 µM [falling, single point]",–
CC(=O)C1=C(c2ccc(Br)cc2)C(=O)c2ccccc2C1=O,"inconclusive: 29.1 µM [falling, single point]",–
Cc1c(Cl)cccc1NS(=O)(=O)c1ccc2[nH]cc(C(=O)NC3CCCC3)c(=O)c2c1,"inconclusive: 29.1 µM [falling, single point]",–
CCc1nc2ccccc2n(CCOCCn2c(=O)c(CC)nc3ccccc32)c1=O,inactive,–
Cc1nn(S(=O)(=O)c2ccc(Cl)cc2)c(C)c1Sc1ccc([N+](=O)[O-])cc1,"inconclusive: 11.6 µM [falling, partial curve, poor fit]",–
C#CC(C)(C)NS(=O)(=O)c1cc(-c2nnc(Nc3ccc(C)cc3)c3ccccc23)ccc1C,"inconclusive: 29.1 µM [falling, single point]",–
Oc1ccc(N=Cc2ccc(-c3cccs3)s2)cc1,inactive,–
CCN1C(=O)c2cccc3c(S(=O)(=O)N(C(C)=O)c4ccc(OC(C)=O)cc4)ccc1c23,active: 25.9 µM,–
O=S(=O)(c1ccccc1)[C@@]1(c2ccccc2)C[C@@H]2ON=C(c3cccc(-c4ccccc4)c3)[C@@H]2C1,inactive,–
CCOC(=O)c1sc(NC(=O)CSc2n[nH]c(-c3ccncc3)n2)c(C#N)c1C,"inconclusive: 23.1 µM [falling, single point]",–
CC1(C)C(=O)Nc2ccccc2N1C(=O)COC(=O)c1cc([N+](=O)[O-])ccc1N,"inconclusive: 32.6 µM [falling, partial curve, poor fit]",–
CCn1nc(C(=O)OC(C(=O)c2c[nH]c3ccccc23)c2ccccc2)c2ccccc2c1=O (stereo unspecified),"inconclusive: 25.9 µM [falling, partial curve, poor fit]",–
COc1ccc(C(=O)OCc2cc(=O)n3ccsc3n2)cc1F,"inconclusive: 25.9 µM [activator, single point]",–
O=C(NC1CCCCC1)c1cc(Cl)ccc1[N+](=O)[O-],inactive,–
C=CC[n+]1c(-c2ccc(C)cc2)csc1Nc1c(C)n(C)n(-c2ccccc2)c1=O,inactive,–
Nc1cc(-c2ccc(Cl)cc2)nn1S(=O)(=O)c1cccc2nsnc12,"inconclusive: 29.1 µM [falling, single point]",–

SMILES,Potency,"activity change, negative = inhibition"
COc1ccc(CNC(=O)C2CCN(c3cc(C(=O)Nc4cccc(OC)c4)ccn3)CC2)cc1,"inconclusive: 18.4 µM [falling, partial curve, poor fit]",–
C=CCOc1ccc(/C=N/Nc2ccccn2)cc1OC,"inconclusive: 1.03 µM [activator, partial curve, poor fit]",–
Cc1ccc2c(COC(=O)C3CC(=O)N(c4ccc5c(c4)OCCO5)C3)cc(=O)oc2c1 (stereo unspecified),"inconclusive: 3.66 µM [activator, partial curve, poor fit]",–
CN1CCC[C@@H]1CCNC(=O)c1c(-c2ccc3c(c2)OCO3)noc1-c1ccsc1,"inconclusive: 29.1 µM [falling, single point]",–
COc1ccc(OC)c(S(=O)(=O)Nc2cc3c(cc2C)n(C)c(=O)c(=O)n3C)c1,inactive,–
C/C(=N\Nc1ccccn1)c1ccc(OC(F)F)cc1,"inconclusive: 5.8 µM [activator, full curve]",–
Oc1ccc(Cl)cc1-c1cc(C(F)(F)C(F)F)nc(-c2ccccc2)n1,"inconclusive: 16.4 µM [falling, single point]",–
Cc1ccccc1NC(=S)c1nc2ccccc2[nH]1,"inconclusive: 25.9 µM [activator, partial curve]",–
COc1ccc(NC(=O)CCS(=O)(=O)c2nc(-c3cccs3)cc(C(F)(F)F)n2)cc1OC,–,inactive: 5.51% [at 9.27 µM]
O=C(c1noc2c1CCCCC2)N1CCN(c2ccc(Cl)cc2)CC1,active: 8.2 µM,–
O=C(c1ccco1)N1N=C(c2ccc(Cl)cc2)CC1c1ccco1 (stereo unspecified),"inconclusive: 29.1 µM [falling, single point]",–
CCN1C(c2ccccc2)=C(c2ccccc2)S/C1=C\C=C1/SC(=S)N(C)C1=O,"inconclusive: 9.2 µM [falling, partial curve]",–
C/C(=N\NC(=O)Cn1c(C)nc2ccccc21)c1cccs1,active: 16.4 µM,–
COC1=Cc2c(ccc3ccc(=O)oc23)OC1(C)C,"inconclusive: 0.651 µM [falling, full curve, poor fit]",–
Cc1nc(N2CCOCC2)c2c(C(=O)NCc3cccc(Cl)c3)c(C)oc2n1,"inconclusive: 25.9 µM [activator, single point]",–
Cc1cccc(C)c1NC(=O)CNC(=O)C(C)N1CCCCC1 (stereo unspecified),inactive,–
COc1cccc(N2CC(O)=C(c3nc4ccccc4c(=O)[nH]3)C2=N)c1,"inconclusive: 36.6 µM [falling, partial curve, poor fit]",–
CCCCCCCCCc1nc2sc3c(c2c(=O)n1NC(=O)c1ccc([N+](=O)[O-])cc1)CC(C)(C)OC3,"inconclusive: 16.4 µM [falling, single point]",–
C#CC[N+](C)(C)CCCCCCCCC,"inconclusive: 23.1 µM [falling, partial curve]",–
O=C(CCCCCn1c(=O)c2sccc2n(CC(=O)Nc2cccc(Cl)c2)c1=O)NCc1ccc2c(c1)OCO2,"inconclusive: 20.6 µM [falling, partial curve, poor fit]",–
